According to PMC12630686, “A degron-mimicking molecular glue drives CRBN homo-dimerization and degradation” (Nature Communications, 2025):
Results are given in words; binding and its absence hold for the method and conditions named. In cells and extracts the contact can be indirect.

Chains of the proteins cited; added tags and fusions are not shown. Lines headed by an entry give the natural chain unless they say otherwise; changes in a name come on top. A line that says so, or that is headed by a name, gives the form on record, which may keep a tag or linker.
UniProt Q96SW2: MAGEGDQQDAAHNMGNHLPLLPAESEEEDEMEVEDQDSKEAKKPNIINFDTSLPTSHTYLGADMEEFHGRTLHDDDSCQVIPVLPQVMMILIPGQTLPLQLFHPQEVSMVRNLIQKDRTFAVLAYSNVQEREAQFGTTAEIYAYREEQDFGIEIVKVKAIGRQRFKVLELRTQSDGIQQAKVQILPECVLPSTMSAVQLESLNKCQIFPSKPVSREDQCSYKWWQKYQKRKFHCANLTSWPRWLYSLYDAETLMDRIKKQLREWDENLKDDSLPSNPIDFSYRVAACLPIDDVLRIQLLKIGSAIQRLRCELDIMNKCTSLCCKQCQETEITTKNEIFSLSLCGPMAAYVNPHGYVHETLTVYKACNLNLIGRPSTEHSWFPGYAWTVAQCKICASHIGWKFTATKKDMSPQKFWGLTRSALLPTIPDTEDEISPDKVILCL
hCRBN-NanoLuc with a 191-248 aa deletion (Trunc) (Q96SW2, form named): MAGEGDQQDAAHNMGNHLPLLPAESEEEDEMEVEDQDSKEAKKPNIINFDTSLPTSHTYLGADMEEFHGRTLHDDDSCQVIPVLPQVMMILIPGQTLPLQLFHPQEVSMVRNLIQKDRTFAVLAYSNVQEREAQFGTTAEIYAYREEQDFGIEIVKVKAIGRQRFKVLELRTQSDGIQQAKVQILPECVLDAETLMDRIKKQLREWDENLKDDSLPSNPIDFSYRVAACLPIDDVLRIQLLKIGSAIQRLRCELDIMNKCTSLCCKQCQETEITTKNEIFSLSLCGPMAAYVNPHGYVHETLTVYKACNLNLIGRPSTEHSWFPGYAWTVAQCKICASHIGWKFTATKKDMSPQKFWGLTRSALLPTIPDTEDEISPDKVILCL
UniProt Q8C7D2: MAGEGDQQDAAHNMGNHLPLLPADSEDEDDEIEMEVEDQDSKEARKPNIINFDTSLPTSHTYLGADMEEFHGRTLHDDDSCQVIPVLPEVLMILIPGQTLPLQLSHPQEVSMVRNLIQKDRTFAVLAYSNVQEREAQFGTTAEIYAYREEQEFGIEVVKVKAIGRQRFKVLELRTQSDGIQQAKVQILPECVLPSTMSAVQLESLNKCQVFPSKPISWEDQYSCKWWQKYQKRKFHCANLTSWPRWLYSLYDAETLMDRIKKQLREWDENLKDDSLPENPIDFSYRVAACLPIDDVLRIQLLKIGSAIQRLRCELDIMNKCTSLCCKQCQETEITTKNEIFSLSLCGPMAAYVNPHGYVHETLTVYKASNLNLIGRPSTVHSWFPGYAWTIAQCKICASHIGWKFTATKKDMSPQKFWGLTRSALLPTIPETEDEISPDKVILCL

Legend:
[1] = target: hCRBN-NanoLuc with a 191-248 aa deletion (Trunc) (human) (UniProt Q96SW2); assay: FRET or BRET; NanoBRET in HEK293T cells transfected with HaloTag-CRBN and CRBN-NanoLuc plasmids at 10:1; HaloTag NanoBRET 618 ligand overnight; MRT-31619 in serial dilution for 3 h; ratio corrected for background and normalised to DMSO; in one condition 20 uM lenalidomide 1 h before (interaction diminished)
[2] = target: CRBN-NanoLuc W386A (human) (UniProt Q96SW2); assay: as above

binding [1] | binding [2] | Substance
no binding | – | HaloTag-mouse CRBN (wild type) (from UniProt Q8C7D2 1-445)
– | no binding | HaloTag-CRBN W386A (from UniProt Q96SW2 1-442)
